# In all, about 390,000 compounds went through this assay and about 910 (0.23%) were called active. Inconclusive results, whose numbers are uncertain, are shown with a selection of clear calls. Calls follow the shape of the dose curve; as a rule, active = well fitted inhibition curve with a large enough effect; inconclusive = small, poorly fitted or top-dose-only effect; inactive = no such curve, though single readings can be large or run the other way. Potencies of inconclusive entries are doubtful fits and often do not repeat.
# Amino acid sequences for entries named in this document (tags omitted). A change or cut given only in a name is not applied to a line headed by its entry.
# UniProt O94782: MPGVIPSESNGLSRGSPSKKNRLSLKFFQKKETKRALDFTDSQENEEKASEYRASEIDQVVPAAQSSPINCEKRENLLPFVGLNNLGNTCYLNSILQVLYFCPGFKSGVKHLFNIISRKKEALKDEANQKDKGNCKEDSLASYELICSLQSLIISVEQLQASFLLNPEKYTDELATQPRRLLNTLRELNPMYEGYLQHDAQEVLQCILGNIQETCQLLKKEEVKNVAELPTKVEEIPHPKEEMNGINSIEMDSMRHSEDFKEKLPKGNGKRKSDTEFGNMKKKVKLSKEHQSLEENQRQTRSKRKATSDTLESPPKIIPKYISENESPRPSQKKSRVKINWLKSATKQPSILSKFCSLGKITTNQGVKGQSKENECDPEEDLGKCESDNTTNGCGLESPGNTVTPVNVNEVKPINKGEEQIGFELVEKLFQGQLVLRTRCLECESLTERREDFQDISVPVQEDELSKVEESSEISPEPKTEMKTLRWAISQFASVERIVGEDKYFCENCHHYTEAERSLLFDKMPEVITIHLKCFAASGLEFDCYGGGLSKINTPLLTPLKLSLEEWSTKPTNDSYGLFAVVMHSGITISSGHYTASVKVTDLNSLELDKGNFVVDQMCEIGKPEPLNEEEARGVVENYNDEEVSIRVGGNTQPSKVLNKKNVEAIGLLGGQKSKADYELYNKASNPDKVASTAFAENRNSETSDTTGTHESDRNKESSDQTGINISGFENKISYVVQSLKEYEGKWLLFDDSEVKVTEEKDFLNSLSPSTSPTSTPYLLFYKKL
# Target: Ubiquitin carboxyl-terminal hydrolase 1 (Homo sapiens) (UniProt O94782)
# Assay: Inhibitors of USP1/UAF1: Primary Screen; also: nearly all actives have a fitted effect of over 60% in size
# Details: recombinant USP1/UAF1, Ub-Rhodamine cleavage fluorescence; activity change, negative = inhibition: at 57.1 µM (top of the series)
# Method in brief: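 In this screen, compounds sit with the deubiquitinase complex (1nM) for 15 min at room temperature before Ub-Rho is added at 150nM final. Fluorescence rise is then followed for 6 reads every 60 seconds.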
# % is scaled to controls: 0 for no effect and ±100 for the full control effect; potency is read from the fitted curve at half-maximal effect.
Structure (SMILES),Potency,"activity change, negative = inhibition"
Cc1cc(O)c(NC(=S)NC(=O)c2ccc(-c3ccc(Cl)cc3)o2)cc1C,inactive,
CC[C@@H]1C(c2ccc(F)cc2)=NN(c2ccc(Br)cc2)[C@H]1C(=O)N1CCOC1=O,inactive,
CC1=CC(C)(C)Nc2ccc(OC(=O)CN3C(=O)c4cccc5cccc(c45)C3=O)cc21,"inconclusive: 28.2 µM [inhibitor, partial curve]",
CCS(=O)(=O)N1CCC(C(=O)NCCC(C)C)CC1,inactive,
Nc1ccc2nc[nH]c2c1,"inconclusive: 31.6 µM [inhibitor, partial curve]",
O=C(CCN1C(=O)/C(=C/c2ccccc2Cl)SC1=S)Nc1ccccc1C(=O)O,"inconclusive: 39.8 µM [inhibitor, partial curve]",
C=CCNC(=O)c1c(CSc2ccc(Cl)cc2)noc1C(=O)NCCC,"inconclusive: 44.7 µM [inhibitor, partial curve, poor fit]",
Cc1ccc(S(=O)(=O)N2C[C@H]3N(C(=O)OC(C)C)N(C(=O)OC(C)C)C[C@H](OC(=O)Nc4c(C)noc4C)[C@@]3(O)C2)cc1,inactive,
CSc1nc2ccc(Cl)cc2[nH]1,inactive,
CCN(CC)c1ccc(NC(=O)c2ccccc2F)cc1S(=O)(=O)Nc1ccccc1OC,inactive,
COC(=O)c1ccccc1NC(=O)Cn1cc(S(=O)(=O)Cc2ccccc2F)c2ccccc21,"inconclusive: 0.251 µM [inhibitor, full curve, poor fit]",
C=CCNC(=S)NNC(=O)c1cccc2ccccc12,"inconclusive: 0.316 µM [inhibitor, full curve]",
COc1ccc2c(c1)c1c(c(=O)n(-c3ccccc3C)c(=O)n1CC(=O)NCc1ccc(C)cc1)n2C,inactive,
Cc1nnc(SCc2ccc(C(=O)c3ccc(Cl)cc3)o2)n1-c1ccccc1,"inconclusive: 0.891 µM [inhibitor, full curve, poor fit]",
CC(C)(C)OC(=O)N1CCC(c2c(C(=O)NCc3ccccn3)cnn2-c2ccccc2)CC1,"inconclusive: 35.5 µM [inhibitor, partial curve, poor fit]",
Cc1cc(S(=O)(=O)N(Cc2ccccc2)Cc2ccc(N(C)C)cc2)ccc1-n1cnnn1,"inconclusive: 14.1 µM [inhibitor, partial curve]",
C[C@@](Cc1ccc(O)c(O)c1)(NN)C(=O)O,inactive,
Cc1c(CN2CCC(n3nccc3NC(=O)c3cccc(F)c3)CC2)cnn1C,inactive,
Cc1ccc(-c2csc(N)n2)cc1,"inconclusive: 31.6 µM [inhibitor, single point]",
COCCNc1oc(/C=C/c2cccs2)nc1S(=O)(=O)c1ccccc1,"inconclusive: 3.55 µM [inhibitor, full curve]",
CCOC(=O)c1c(NC(=O)/C=C/c2ccccc2)sc2c1CCCC2,"inconclusive: 50.1 µM [inhibitor, partial curve, poor fit]",
Cc1cccc(C(=O)N(CCc2ccccc2)Cc2ccccc2)c1[N+](=O)[O-],"inconclusive: 50.1 µM [inhibitor, partial curve, poor fit]",
Cc1cc(NC(=O)CCCn2c(C)c3cnn(-c4ccccc4)c(=O)c3c2C)ccc1Br,inactive,

Structure (SMILES),Potency,"activity change, negative = inhibition"
CC(Sc1nnc(-c2ccc(Cl)cc2Cl)n1Cc1ccccc1)C(=O)Nc1nccs1 (stereo not drawn),"inconclusive: 35.5 µM [inhibitor, partial curve]",
CCCCCC1CC(CC#CCN2CCOCC2)C(=O)O1 (stereo not drawn),inactive,
O=C(CSc1nccc(=O)[nH]1)N1CCc2ccccc2C1,"inconclusive: 35.5 µM [inhibitor, partial curve, poor fit]",
Oc1ccc(/C=N/Nc2cc(N3CCCC3)nc(N3CCCC3)n2)cc1O,inactive,
CCCOC(=O)CSc1nc(N)c(C#N)c(CC)c1C#N,inactive,
FC(F)(F)COc1nc(N/N=C/c2cccnc2)nc(N2CCCCC2c2ccccn2)n1 (stereo not drawn),"inconclusive: 89.1 µM [inhibitor, partial curve, poor fit]",
CCN(CC)c1ccc(-c2nn3c(-c4ccccc4OC)nnc3s2)cc1,"inconclusive: 28.2 µM [inhibitor, partial curve]",
CCCC(=O)NC(c1ccccc1OC)c1ccc2cccnc2c1O (stereo not drawn),inactive,
COc1ccc(COC(=O)c2[nH]c3c(c2C)C(=O)CC(c2ccc(OC)c(OC)c2)C3)cc1 (stereo not drawn),"inconclusive: 31.6 µM [inhibitor, single point]",
C(=C\c1ccccn1)/c1ccncc1,inactive,
O=C(N/N=C\C=C\c1ccc(Br)cc1)c1ccc2c(c1)OCO2,,inconclusive: -18.2% [inhibitor]
CCOc1cc(/C=C2/C(=O)ON=C2C)ccc1OCc1ccccc1F,"inconclusive: 31.6 µM [inhibitor, partial curve]",
CCOc1cc(C2c3c(-c4ccccc4)n[nH]c3C(=O)N2c2ccc(C(=O)O)cc2)ccc1O (stereo not drawn),"inconclusive: 44.7 µM [inhibitor, partial curve]",
CCCCN(C)C(=O)C(Cc1ccccc1)NS(=O)(=O)c1ccc2c(c1)c(=O)n(C)c(=O)n2C (stereo not drawn),"inconclusive: 0.708 µM [inhibitor, full curve, poor fit]",
O=C(Nc1ccccc1SC(=O)c1ccccc1)c1ccccc1,inactive,
COC(=O)CSc1cccc2c1C(=O)CC2c1ccccc1 (stereo not drawn),inactive,
O=C(CN1C(=O)C2CCCCC2C1=O)Nc1nccs1 (stereo not drawn),"inconclusive: 0.891 µM [inhibitor, partial curve]",
Cc1ccc(C)c(C(=O)CCC(=O)N2CCN(c3cccc(C(F)(F)F)c3)CC2)c1,"inconclusive: 35.5 µM [inhibitor, partial curve]",
O=C(O)C1=CC[C@@H](c2ccc(Cl)cc2)N(S(=O)(=O)c2ccc(Cl)cc2)[C@H]1c1ccc(Br)cc1,"inconclusive: 31.6 µM [inhibitor, single point]",
COc1ccc(C(=O)/C=C/c2ccc(O)cc2)cc1,inactive,
COc1cccc(N2CCN(C(=S)Nc3ccccc3)CC2)c1,inactive,
CCN(CC)c1ccc(NC(=O)c2ccccc2Br)cc1S(=O)(=O)Nc1ccccc1OC,inactive,
C#CCOCCOCCOCCNc1nc(N2CCN(C(=O)CCCCCCCCCCNC(=O)[C@H](CO)n3cc(CCCSC)nn3)CC2)nc(N2CCN(C(=O)CCCCCCCCCCNC(=O)[C@H](CCCN=C(N)N)n3cc(C[C@@H](C)CC)nn3)CC2)n1,"inconclusive: 31.6 µM [inhibitor, partial curve]",

# Not a retest: an excerpt of the list.
Structure (SMILES),Potency,"activity change, negative = inhibition"
Oc1ccc(/C=N/Nc2cc(N3CCCC3)nc(N3CCCC3)n2)cc1O,inactive,
CCCOC(=O)CSc1nc(N)c(C#N)c(CC)c1C#N,inactive,

# Continued.

Structure (SMILES),Potency,"activity change, negative = inhibition"
CC(=O)Nc1ccc(C(=O)N/N=C/c2ccccc2OCc2ccccc2)cc1,inactive,
O=C(O)COc1ccccc1/C=C1\SC(=S)N(NC(=O)c2ccccc2O)C1=O,"inconclusive: 50.1 µM [inhibitor, partial curve, poor fit]",
Nc1cccc(-n2nnnc2CN2CCOCC2)c1,inactive,
CCOC(=O)/C(C#N)=C/C=C1/C=CC=CN1C,inactive,
COc1ccccc1NC(=O)Cn1c(C)nc2c(sc(=S)n2Cc2ccco2)c1=O,"inconclusive: 44.7 µM [inhibitor, partial curve, poor fit]",
CCn1c(Nc2ccccc2Cl)nc2ccccc21,"inconclusive: 39.8 µM [inhibitor, partial curve, poor fit]",
C=CCN1C(=O)[C@@H]2Cc3c([nH]c4ccccc34)C(c3cc(OC)c(OC)c(OC)c3)N2C1=S (stereo partly drawn),"inconclusive: 35.5 µM [inhibitor, single point]",
OCCNC(=S)NCCc1ccccc1,inactive,
C[C@@H]1CC=C[C@H]2[C@H]1C(=O)N(Cc1ccccc1)[C@H]2c1ccc(/C=C/c2ccccc2)cc1F,"inconclusive: 44.7 µM [inhibitor, partial curve, poor fit]",
COc1ccccc1CNC(=O)CCn1c(=O)c2ccccc2n(CC(=O)Nc2ccc(C)cc2C)c1=O,inactive,
N#CN=CN1CC=C(c2ccc(Cl)cc2)CC1,"inconclusive: 5.01 µM [inhibitor, partial curve]",
COc1ccc(SC[C@H](Cc2ccccc2)N2CC[C@@H](NC(=O)OCc3ccccc3)CCC2=O)cc1,"inconclusive: 7.08 µM [inhibitor, partial curve]",
Cc1cc(OC(=O)c2cc(-c3ccc4c(c3)OCCO4)on2)ccc1Cl,inactive,
COc1ccc2c(c1)-c1nc(NC(=O)c3cc(Cl)ccc3OC)sc1CC2,"inconclusive: 0.631 µM [inhibitor, full curve, poor fit]",
Cc1nc(CC(=O)Nc2cccc(C)c2C)cs1,inactive,
Cc1ccccc1CNC(=O)Cc1ccccc1[N+](=O)[O-],inactive,
O=C(O)COc1ccccc1C=NNc1ccc([N+](=O)[O-])cc1S(=O)(=O)Nc1ccc(Cl)cc1,"inconclusive: 7.08 µM [inhibitor, partial curve, poor fit]",
CCN(Cc1ccc2c(c1)OCCO2)C(=O)CSc1nc(C)nc2sc(C)c(C)c12,"inconclusive: 89.1 µM [inhibitor, partial curve, poor fit]",
C(=C\c1ccccc1)/C=N/Nc1nc2ccccc2s1,"inconclusive: 0.282 µM [inhibitor, full curve, poor fit]",
O=C(Nc1ccc(Cl)cc1)N(Cc1cccnc1)Cc1ccco1,"inconclusive: 0.224 µM [inhibitor, full curve, poor fit]",
C[C@@H]1NC(=O)[C@@]2(C)[C@@H](c3ccccc3)[C@H]3COc4ccc(Cl)cc4[C@@H]3N2C1=O,"inconclusive: 2.24 µM [inhibitor, full curve, poor fit]",
CC(=O)Nc1ccc(SC[C@H](Cc2ccccc2)N2CC[C@@H](C(C)(C)C)CCC2=O)cc1,"inconclusive: 50.1 µM [inhibitor, partial curve, poor fit]",
